# Assay results taken from PubChem BioAssay AID540276 (National Center for Advancing Translational Sciences (NCATS), 2011).
# Among all 300,000 compounds or so, about 5,400 (1.8%) were called active. This list was built around the results that the source calls inconclusive (neither active nor inactive); the mix of calls is not that of the screen. Calls follow the shape of the full dose curve; tested in HEK293 cells. Where the call is inconclusive, the potency comes from a doubtful curve fit.
# Assay: qHTS for inhibitors of binding or entry into cells for Marburg Virus
# Conditions: Marburg virus pseudotyped entry inhibition, cell reporter; series mostly up to 37.8 µM
# Potency is read from the fitted curve at half-maximal effect.
row,SMILES,Potency
1,O=S(=O)(NC1CCCCC1)c1ccc(Cl)nc1,"inconclusive: 0.708 µM [inhibitor, partial curve, poor fit]"
2,COC(=O)/C(C#N)=C/c1c[nH]c2ccccc12,"inconclusive: 3.98 µM [activator, partial curve]"
3,CCCCOC(=O)CSc1nc2c(c(=O)[nH]c(=O)n2C)n1C/C=C(\C)Cl,"inconclusive: 35.5 µM [activator, partial curve, poor fit]"
4,Cn1cccc1C(=O)NC(=O)COC(=O)C12CC3CC(CC(O)(C3)C1)C2,"inconclusive: 20 µM [activator, single point]"
5,c1ccc2oc(NC3=NCN(CC4CCCO4)CN3)nc2c1 (stereo unspecified),inactive
6,COCc1cc(=O)n2[nH]c(-c3ccco3)cc2n1,"inconclusive: 15.8 µM [activator, partial curve, poor fit]"
7,COc1ccc(OC)c(NC(=O)NCCc2cccc(Cl)c2)c1,"inconclusive: 28.2 µM [inhibitor, single point]"
8,Cc1ccc(NC(=O)COc2coc(CN3CCN(c4ccccc4)CC3)cc2=O)cc1,"inconclusive: 0.1 µM [inhibitor, full curve, poor fit]"
9,COC(=O)c1ccc(C(NC(=O)OCc2ccccc2)/C(C)=C/[C@@H](C)C(=O)NCc2ccc(-c3ccccc3)cc2)cc1 (stereo partly specified),"inconclusive: 29.1 µM [inhibitor, single point]"
10,COC(=O)c1ccc(COC(=O)c2ccc(CO)cc2)o1,"inconclusive: 16.4 µM [activator, partial curve, poor fit]"
11,COc1cc(/C=C2/SC(=S)N(Cc3ccccc3)C2=O)cc(OC)c1O,"inconclusive: 14.1 µM [inhibitor, single point]"
12,Cc1ccc2nc3ccc(N4CCN(C)CC4)nn3c(=O)c2c1,inactive
13,COc1ccc(-c2nn(-c3ccccc3)cc2/C=C/C(=O)NCCCn2ccnc2)cc1OC,"inconclusive: 10 µM [inhibitor, partial curve, poor fit]"
14,CSc1ccc(Cl)c(C(=O)Nc2ccc(Cl)cn2)c1,"inconclusive: 4.47 µM [inhibitor, full curve, poor fit]"
15,Cc1ccccc1C(=O)Nc1nc2nc(C)c(C)c(=O)n2[nH]1,"inconclusive: 1.12 µM [activator, partial curve, poor fit]"
16,Cc1ccccc1-c1nc(CS(=O)(=O)CC(=O)NCc2ccc3c(c2)OCO3)c(C)o1,"inconclusive: 2.59 µM [inhibitor, full curve, poor fit]"
17,Cc1cccn2c(=O)c(/C=C(\C#N)C(=O)NC3CCS(=O)(=O)C3)c(Oc3ccccc3Cl)nc12 (stereo unspecified),"inconclusive: 14.1 µM [inhibitor, partial curve, poor fit]"
18,CC(=O)N1CCN(S(=O)(=O)c2cccc(C(=O)OCC(=O)NC(=O)c3cccn3C)c2)CC1,"inconclusive: 2.82 µM [activator, partial curve, poor fit]"
19,O=C(NN=C1C[C@@H](O)[C@H](O)[C@H]2[C@@H]3C(=O)N(C[C@@H]4CCCO4)C(=O)[C@@H]3CC[C@@H]12)OCc1ccccc1,inactive
20,CC(C)COC(=O)NC1c2ccccc2Oc2ccccc21,"inconclusive: 35.5 µM [inhibitor, single point]"
21,Cc1nc2ncnn2c(C)c1CCC(=O)NCCc1ccccc1,inactive

# Entries above that contain a cyano group:
row,SMILES,Potency
2,COC(=O)/C(C#N)=C/c1c[nH]c2ccccc12,"inconclusive: 3.98 µM [activator, partial curve]"
17,Cc1cccn2c(=O)c(/C=C(\C#N)C(=O)NC3CCS(=O)(=O)C3)c(Oc3ccccc3Cl)nc12 (stereo unspecified),"inconclusive: 14.1 µM [inhibitor, partial curve, poor fit]"

# (list continues)

row,SMILES,Potency
1,CN1CC(=O)N(C)c2ncn(Cc3ccccc3)c2C1=O,inactive
2,CCC(=O)n1nc(NCc2ccccc2OC)nc1NCc1ccccc1OC,"inconclusive: 15.8 µM [inhibitor, single point]"
3,Cn1c(SCC(=O)Nc2ccc3cn[nH]c3c2)nnc1-c1cccs1,"inconclusive: 35.5 µM [inhibitor, single point]"
4,CSc1nc(C)c2c(n1)N(c1ccc(C(C)C)cc1)CC2,inactive
5,CCN(CC)CCNC(=S)Nc1ccc2nc(N3CCCC3)cc(C)c2c1,active: 4.11 µM
6,Cc1ccc2c(c1)c(=O)c(C(=O)c1ccc3c(c1)OCO3)cn2Cc1cccc(F)c1,"inconclusive: 3.16 µM [inhibitor, partial curve, poor fit]"
7,COc1ccccc1-n1c(SCC(=O)N2CCOCC2)nc(O)cc1=O,"inconclusive: 1.26 µM [inhibitor, single point]"
8,CCN(C(=O)CSc1nnc(Nc2ccccc2)s1)C1CCS(=O)(=O)C1 (stereo unspecified),"inconclusive: 35.5 µM [activator, single point]"
9,CSCCC(NS(=O)(=O)c1cccs1)C(=O)NCc1cccs1 (stereo unspecified),inactive
10,CS(=O)(=O)c1cccc(C(=O)NC(c2ccccc2)c2ccccc2)c1,"inconclusive: 0.251 µM [inhibitor, full curve, poor fit]"
11,CCc1nnc(NC(=O)CSc2nc(C)c3c(c2C#N)CCCC3)s1,"inconclusive: 10.3 µM [inhibitor, partial curve, poor fit]"
12,CC(CCN1CCCc2nc(C)c(C)cc21)=NOC[C@@H](O)COCc1ccco1,"inconclusive: 1.19 µM [inhibitor, single point]"
13,CCN(CC)C(=O)C1CCCN(Cc2ccc(OC)c(C)c2)C1 (stereo unspecified),"inconclusive: 20.6 µM [inhibitor, single point]"
14,COc1ccc(-c2noc(CSc3nnc(Cc4ccccc4)n3-c3ccccc3)n2)cc1OC,inactive
15,COc1ccc(C2C(C(=O)c3ccco3)=C(O)C(=O)N2CC2CCCO2)cc1OC (stereo unspecified),inactive
16,COc1ccc2[nH]cc(C(=O)CN3CC(C)CC(C)C3)c2c1 (stereo unspecified),"inconclusive: 7.08 µM [inhibitor, partial curve]"
17,c1ccc(CCC2CCCCN2Cc2nc(-c3ccc4c(c3)OCO4)no2)nc1 (stereo unspecified),"inconclusive: 35.5 µM [inhibitor, single point]"
18,CC(C)C(NC(=O)c1cccs1)C(=O)NC1=NCCS1 (stereo unspecified),"inconclusive: 0.231 µM [activator, partial curve, poor fit]"
19,O=C(CCS(=O)(=O)c1cccc2nsnc12)NCc1ccccc1Cl,"inconclusive: 6.51 µM [inhibitor, single point]"
20,Nc1nc(Nc2cccc(F)c2)nc(N2CCOCC2)c1[N+](=O)[O-],inactive
